Assay results reported in the supplement of paper PMC10735217.
Values joined by “and” are separate entries in the source; they are usually repeats but may differ in a detail not shown here. Equal entries are not always repeated. The list shows a part of the results. Repeats in this data set agree poorly, so a single value says little.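 Human kidney-derived cells stably carry a construct in which eight TEAD-binding elements drive luciferase, measured by luminescence in a drug-repurposing library screen. A hit is any compound whose signal exceeds the plate mean by more than five robust Z scores.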

System: HEK293A TEAD-LUC reporter
Assay: TEAD-luciferase reporter activity (YAP activation), robust Z score vs plate; higher = stronger YAP/TEAD activation
Details: 24 h

Compound	TEAD-luciferase reporter activity (compound concentration: 200 nM)	TEAD-luciferase reporter activity (compound concentration: 2 uM)	TEAD-luciferase reporter activity (compound concentration: 10 uM)
C[C@H]1Oc2c(cccc2N2CCN(CCCc3c[nH]c4ccc(F)cc34)CC2)NC1=O	inactive: -0.901	inactive: 0.368	inactive: -0.566
O=C(c1ccccc1Cl)c1cccnc1-c1nnn(Cc2cc(C(F)(F)F)cc(C(F)(F)F)c2)c1-c1ccncc1 [tradipitant]	inactive: 0.206	inactive: -0.787	inactive: -0.0702
CONC1=NC(=O)/C(=C/c2cc(C(C)(C)C)c(O)c(C(C)(C)C)c2)S1	inactive: -0.653	inactive: -1.64	inactive: -1.71
COCC1(COC)Oc2ccc(C#N)cc2[C@@H](Nc2ccc(=O)n(C)n2)[C@@H]1O	inactive: 0.544	inactive: -1.7	inactive: -0.321
O=C(NC1CCCCC1)NS(=O)(=O)c1ccc(CCNC(=O)c2cccc3c2OCC3)cc1	inactive: -2.26	inactive: -0.326	inactive: -0.515
CC(=O)N1CCN(CCOc2ccc(C3CCN(C4=Nn5c(nnc5C(F)(F)F)CC4)CC3)cc2)CC1	inactive: -1.04	inactive: -1.12	inactive: 0.762
Cn1cc(CNCC2CCN(c3ncc(C(=O)NO)cn3)CC2)c2ccccc21 [quisinostat]		active: 25.4	
Cn1cc(CNCC2CCN(c3ncc(C(=O)NO)cn3)CC2)c2ccccc21 [Quisinostat]	inactive: 0.467		active: 39.8
COc1cc2c(cc1OC)-c1c(C)c3ccc(OC)c(OC)c3c[n+]1CC2 [Dehydrocorydaline]	active: 10.7	inactive: -1.34	inactive: 4.12
O=C(NCC(F)F)C1CCCN(c2nc3ncccc3o2)C1 (stereo unspecified)	inactive: -1.26		inactive: -0.897
CC(C)C[C@H](N)C(=O)N1CCC[C@H]1C(=O)N[C@@H](Cc1ccccc1)C(=O)N[C@@H](Cc1ccccc1)C(=O)N[C@@H](CC(=O)O)C(=O)O [Beta-sheet breaker peptide]	inactive: -0.138	inactive: -0.793	inactive: -0.422
Clc1ccc(COC(Cn2ccnc2)c2ccc(Cl)cc2Cl)c(Cl)c1 (stereo unspecified)	inactive: -2.02	inactive: -0.0343	inactive: 1.05
Clc1cc(/C=C\CN2CCCCCC2)ccc1C1CCCCC1	inactive: -0.851	inactive: -1.71	inactive: 0.987
Fc1ccc(C2CCNCC2COc2ccc3c(c2)OCO3)cc1 (stereo unspecified) [paroxetine]		inactive: 3.8	
Fc1ccc(C2CCNCC2COc2ccc3c(c2)OCO3)cc1 (stereo unspecified) [Paroxetine]	inactive: -1.01		inactive: -0.162
Nc1ccc(C(=O)N(CCN2CCC(C(=O)c3ccccc3)CC2)c2cccnc2)cc1	inactive: -1.41	inactive: -1.29	inactive: -1.5
CCCC(=O)Nc1c(I)cc(I)c(CC(CC)C(=O)O)c1I (stereo unspecified) [Tyropanoate Sodium]	inactive: 2.11	inactive: -0.834	inactive: -0.124
O=c1[nH]c(=O)n([C@H]2C[C@H](O)[C@@H](CO)O2)cc1F [5-fluoro-2'-deoxyuridine]		inactive: -1.89	
O=c1[nH]c(=O)n([C@H]2C[C@H](O)[C@@H](CO)O2)cc1F	inactive: -2.68		inactive: -2.21
COC(=O)N[C@@H](C)CNc1nccc(-c2cn(C(C)C)nc2-c2cc(Cl)cc(NS(C)(=O)=O)c2F)n1	inactive: -1.97		inactive: -0.28
COC(=O)N[C@@H](C)CNc1nccc(-c2cn(C(C)C)nc2-c2cc(Cl)cc(NS(C)(=O)=O)c2F)n1 [Encorafenib]		inactive: -1.54	
Cc1nc(Cn2cnc3c2c(=O)[nH]c(=O)n3C)no1	inactive: -0.496	inactive: -0.801	inactive: 0.796
C=CC/N=C1/Nc2cccc(c2)C(=O)[O][Cu-][S]1	inactive: 2.46	inactive: -0.657	inactive: 2.84
Cc1cc(-c2cc3c(cc2F)c(=O)c(C(=O)O)cn3C2CC2)cc(C)n1	inactive: 1.72	inactive: 1.5	inactive: -1.17
CCc1ccc(NC(=O)N2CCN(c3ccccc3OC)CC2)cc1	inactive: -0.285	inactive: 0.306	inactive: 3.9
OCC(O)CO	inactive: -0.348	inactive: -0.751	active: 6.99
CC(C)[C@H](NC(=O)[C@H](CCCNC(=N)N)NC(=O)[C@@H](N)CC(N)=O)C(=O)N[C@@H](Cc1ccc(O)cc1)C(=O)N[C@H](C(=O)N[C@@H](Cc1c[nH]cn1)C(=O)N1CCC[C@H]1C(=O)N[C@@H](Cc1ccccc1)C(=O)O)C(C)C	inactive: -1.75	inactive: -0.884	inactive: 1.91
COc1ccc2nccc(C(O)CC[C@@H]3CCN(CCSc4cccs4)C[C@@H]3C(=O)O)c2c1 (stereo partly specified)	inactive: -1.36	inactive: -1.26	inactive: -1.08

4 entries picked at random from the list so far:
Compound	TEAD-luciferase reporter activity (compound concentration: 200 nM)	TEAD-luciferase reporter activity (compound concentration: 2 uM)	TEAD-luciferase reporter activity (compound concentration: 10 uM)
COc1ccc2nccc(C(O)CC[C@@H]3CCN(CCSc4cccs4)C[C@@H]3C(=O)O)c2c1 (stereo partly specified)	inactive: -1.36	inactive: -1.26	inactive: -1.08
C=CC/N=C1/Nc2cccc(c2)C(=O)[O][Cu-][S]1	inactive: 2.46	inactive: -0.657	inactive: 2.84
O=C(c1ccccc1Cl)c1cccnc1-c1nnn(Cc2cc(C(F)(F)F)cc(C(F)(F)F)c2)c1-c1ccncc1 [tradipitant]	inactive: 0.206	inactive: -0.787	inactive: -0.0702
O=C(NC1CCCCC1)NS(=O)(=O)c1ccc(CCNC(=O)c2cccc3c2OCC3)cc1	inactive: -2.26	inactive: -0.326	inactive: -0.515

More entries follow:

Compound	TEAD-luciferase reporter activity (compound concentration: 200 nM)	TEAD-luciferase reporter activity (compound concentration: 2 uM)	TEAD-luciferase reporter activity (compound concentration: 10 uM)
CC(=O)CC(c1ccccc1)c1c(O)c2ccccc2oc1=O (stereo unspecified) [Warfarin potassium]		inactive: 1.61	
CC(=O)CC(c1ccccc1)c1c(O)c2ccccc2oc1=O (stereo unspecified)	inactive: -0.827		inactive: -1.19
CC(C)NCC(O)COc1cccc2[nH]c3ccccc3c12 (stereo unspecified)	inactive: 0.29	inactive: -1.38	inactive: -0.721
CCCCP(=O)(O)CCCN	inactive: -0.167		inactive: -1.17
Cc1ccccc1NC(=O)Nc1ccc(CN2C(=O)N([C@@H](CC(C)C)C(=O)N[C@@H](CC(=O)O)c3ccccc3)C(=O)C2(C)C)cc1	inactive: -1.21	inactive: 1.14	inactive: -1.1
CC1=C(C(=O)OC(C)C)C(c2ccc([N+](=O)[O-])cc2)C(C(=O)OC(C)C)=C(C)N1	inactive: -2.51	inactive: -0.839	inactive: 3.46
COc1cc(N2CCC(N(C)C)CC2)ccc1Nc1ncc(Cl)c(Nc2ccccc2P(C)(C)=O)n1	active: 5.58	inactive: -2.78	inactive: 0.234
Cc1coc2ccc3ccc(=O)oc3c12	inactive: -0.403	inactive: 0.93	inactive: 1.4
O=C(Nc1ncc(F)s1)[C@H](CC1CCOCC1)c1ccc(S(=O)(=O)C2CC2)cc1	inactive: -0.287	inactive: 0.502	inactive: 0.732
COc1ccccc1-c1ncc(-c2nn[nH]n2)c(O)n1	inactive: 0.00781	inactive: -1.04	inactive: -1.12
CC(C)C[C@H](N[C@@H](c1ccc(-c2ccc(S(C)(=O)=O)cc2)cc1)C(F)(F)F)C(=O)NCC#N	inactive: -0.186	inactive: -1.2	inactive: 0.053
Cc1cc(C[C@@H](CC(=O)N2CCC(N3CCc4ccccc4NC3=O)CC2)C(=O)O)cc(C)c1O	inactive: 0.332	inactive: -0.547	inactive: -0.147
COc1ccc2c(c1)c(-c1ccc(C(C)C)cc1)nc(=O)n2C(C)C [analog of AXT-914]	inactive: -0.443	inactive: -0.906	inactive: 1.44
C=C(Nc1ccc(OCC)cc1)Nc1ccc(OCC)cc1	inactive: -0.84	inactive: 2.76	inactive: -1.08
CC(=O)NC[C@@H]1CN(c2ccc(N(C)S(C)(=O)=O)c(F)c2)C(=O)O1	inactive: 1.07	inactive: -1.49	inactive: 1.13
Cc1cc(-c2ccc3c(c2)CC[C@H]3N2CC3(CCN(C(=O)Cc4cn5cc(C)sc5n4)CC3)C2)ncn1	inactive: -0.913	inactive: -1.57	inactive: 0.556
O=[N+]([O-])c1ccc(/C=C/c2cccc(CO)n2)o1 [Nifurpirinol]	inactive: -0.126		inactive: 0.451
c1ccc2c(c1)c1cc[n+]2CCCCCCCCCC[n+]2ccc(c3ccccc32)NCCCCCCCCCCN1	inactive: -0.159	inactive: 0.183	inactive: -0.269
CCCCCCCCCCCC(=O)O[C@@H]1C[C@@H](CCOc2ccccc2CCc2cccc(OC)c2)N(C)C1	inactive: -0.157	inactive: -0.485	inactive: 0.152
C#C[C@]1(O)CC[C@H]2[C@@H]3CCc4cc(OS(=O)(=O)C(C)C)ccc4[C@H]3CC[C@@]21C [ethinyl estradiol sulfonate]	inactive: -0.456	inactive: 2.2	inactive: 4.88
CC(C)C1O[C@@H]2C[NH][Pt]3([NH]C[C@H]2O1)[O]C(=O)CC(=O)[O]3 [heptaplatin]	inactive: -0.744	inactive: -1.04	inactive: -0.902
CC(C)(C)CC(=O)Nc1c(F)cc(C(=O)/N=c2\sccn2COP(=O)(O)O)cc1F	inactive: 0.203	inactive: -0.472	inactive: -1.39
CC(=O)N1CCCN(C(=O)c2c[nH]c3ncccc23)CC1	inactive: -2.09		inactive: 0.993
O=C(O)c1cc(=O)c2ccc(OCC(O)COc3ccc4c(=O)cc(C(=O)O)oc4c3)cc2o1	inactive: 1.45	inactive: -1.07	inactive: -0.111
Cc1c(NC(=O)OC[C@@H]2COCCN2)cn2ncnc(Nc3ccc4c(cnn4Cc4cccc(F)c4)c3)c12	active: 5.62	inactive: -0.545 and inactive: -0.907	inactive: 0.693
Oc1ccc(OCc2ccccc2)cc1	inactive: 4	inactive: 0.235	inactive: 3.22
CC(C)[C@H](NC(=O)[C@@H]1CCCN1)C(=O)N[C@H](C(=O)N[C@@H](CCCCN)C(=O)N1CCC[C@H]1C(=O)N[C@@H](CCC(N)=O)C(=O)N[C@H](C)C(N)=O)[C@@H](C)O	inactive: -1.88	inactive: 0.483	inactive: -0.64
